The values below come from article PMC7054742.

For test [1], the target named is 3xFLAG-tagged full-length NKRF (784 amino acids) (human). Kind of test: co-IP; U-2 OS cells transiently transfected with N-terminally FLAG-tagged short, middle or full-length NKRF; cell extracts immunoprecipitated with anti-FLAG antibody (IgG as negative control); blot for NKRF and XRN2.
Test [2] has as its target NF-κB repressing factor (NKRF), endogenous full-length protein (human (endogenous in U-2 OS)). Kind of test: co-IP; endogenous NKRF immunoprecipitated with anti-NKRF antibody (control IgG) from U-2 OS nuclear lysate in L200 buffer (50 mM Tris-HCl pH 7.4, 1% Triton X-100, 150 mM NaCl), 2 h at 4°C; cells untreated or treated with CX-5461, lysates untreated or treated with RNase or DNase; blot for XRN2.

Results are given in words; binding and its absence hold for the method and conditions named. In cells and extracts the contact can be indirect. A result given as binding can be weak or reduced; the word gives no strength.

B1: 5′–3′ exonuclease XRN2 (enzyme, UniProt Q9H0D6 1-950)
chain: MGVPAFFRWLSRKYPSIIVNCVEEKPKECNGVKIPVDASKPNPNDVEFDNLYLDMNGIIHPCTHPEDKPAPKNEDEMMVAIFEYIDRLFSIVRPRRLLYMAIDGVAPRAKMNQQRSRRFRASKEGMEAAVEKQRVREEILAKGGFLPPEEIKERFDSNCITPGTEFMDNLAKCLRYYIADRLNNDPGWKNLTVILSDASAPGEGEHKIMDYIRRQRAQPNHDPNTHHCLCGADADLIMLGLATHEPNFTIIREEFKPNKPKPCGLCNQFGHEVKDCEGLPREKKGKHDELADSLPCAEGEFIFLRLNVLREYLERELTMASLPFTFDVERSIDDWVFMCFFVGNDFLPHLPSLEIRENAIDRLVNIYKNVVHKTGGYLTESGYVNLQRVQMIMLAVGEVEDSIFKKRKDDEDSFRRRQKEKRKRMKRDQPAFTPSGILTPHALGSRNSPGSQVASNPRQAAYEMRMQNNSSPSISPNTSFTSDGSPSPLGGIKRKAEDSDSEPEPEDNVRLWEAGWKQRYYKNKFDVDAADEKFRRKVVQSYVEGLCWVLRYYYQGCASWKWYYPFHYAPFASDFEGIADMPSDFEKGTKPFKPLEQLMGVFPAASGNFLPPSWRKLMSDPDSSIIDFYPEDFAIDLNGKKYAWQGVALLPFVDERRLRAALEEVYPDLTPEETRRNSLGGDVLFVGKHHPLHDFILELYQTGSTEPVEVPPELCHGIQGKFSLDEEAILPDQIVCSPVPMLRDLTQNTVVSINFKDPQFAEDYIFKAVMLPGARKPAAVLKPSDWEKSSNGRQWKPQLGFNRDRRPVHLDQAAFRTLGHVMPRGSGTGIYSNAAPPPVTYQGNLYRPLLRGQAQIPKLMSNMRPQDSWRGPPPLFQQQRFDRGVGAEPLLPWNRMLQTQNAAFQPNQYQMLAGPGGYPPRRDDRGGRQGYPREGRKYPLPPPSGRYNWN
With B1, the binding result in test [1] and in test [2] was “binds” in each case.
